1 substance from paper PMC8967655 can be followed below.

The chains behind the UniProt entries cited, without tags or fusion partners. Residues count along the entry.
UniProt P60615, residues 22-95: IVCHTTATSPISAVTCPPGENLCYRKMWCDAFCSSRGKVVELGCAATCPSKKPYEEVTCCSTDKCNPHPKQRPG
UniProt P04756, residues 21-230: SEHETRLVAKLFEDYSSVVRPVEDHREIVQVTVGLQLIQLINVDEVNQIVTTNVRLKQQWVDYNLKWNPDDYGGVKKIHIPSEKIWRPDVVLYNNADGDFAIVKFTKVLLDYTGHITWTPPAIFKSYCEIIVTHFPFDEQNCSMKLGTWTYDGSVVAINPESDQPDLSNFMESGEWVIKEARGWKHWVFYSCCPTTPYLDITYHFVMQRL

The test concerns the target α-bungarotoxin, biotin conjugate (UniProt P60615). Kind of test: pull-down; both purified.

These are yes or no findings as the source states them, for the method shown. Some entries that bind do so weakly or less than the wild type.

Consider “GST-tagged nAChR α1 subunit ectodomain (amino acids 21-230) (from UniProt P04756 21-230) (domain or fragment)”, for which the binding entry is recorded as “binds”.
